# Measurements: the supplement of paper PMC4604168 (melanoma cell lines)
# Some of the results follow. Many values rest on one well or one pass, so single values are uncertain.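 Cells were imaged in 1,536-well plates, and nuclei stained with an antibody against cleaved PARP were counted against all DNA-stained nuclei to give the apoptosis fraction. Screening doses were chosen to leave most cells alive, and resting and induced cleaved-PARP levels differ strongly between cell lines.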
# Test system: WM1745
# Experiment: cleaved PARP positive nuclei fraction relative to DMSO control; melanoma cells; higher = more apoptosis
# Conditions: library dose: low library concentration; 72 h
row,SMILES,cleaved PARP positive nuclei fraction
1,"C[C@@H](N)c1ccc(C(=O)Nc2ccnc3[nH]ccc23)cc1 + c1cc(-c2cnn3cc(-c4ccc(OCCN5CCCCC5)cc4)cnc23)ccn1 [Dorsomorphin] (first compound 0.4 µM, partner dose 0.4 µM)",119%
2,"NC1(c2ccc(-c3nc4ccn5c(=O)[nH]nc5c4cc3-c3ccccc3)cc2)CCC1 + Cn1c(=O)n(-c2ccc(C(C)(C)C#N)cc2)c2c3cc(-c4cnc5ccccc5c4)ccc3ncc21 [NVP-BEZ235] (first compound 0.4 µM, partner dose 0.004 µM)",97.4%
3,"NC(=O)c1ccc(N(C(N)=O)c2c(F)cccc2F)nc1-c1ccc(F)cc1F + CC(C)(C)c1cnc(CSc2cnc(NC(=O)C3CCNCC3)s2)o1 [SNS-032] (first compound 0.4 µM, partner dose 0.01 µM)",97.3%
4,"C[C@]1(O)C[C@@H](c2nc(-c3ccc4ccc(-c5ccccc5)nc4c3)c3c(N)nccn32)C1 + CNC(=O)c1cc(Oc2ccc(NC(=O)Nc3ccc(Cl)c(C(F)(F)F)c3)cc2)ccn1 [sorafenib] (first compound 0.4 µM, partner dose 0.4 µM)",132%
5,"Cn1sc(=O)n(Cc2ccccc2)c1=O + CCc1ccc(CCOc2ccc(CC3SC(=O)NC3=O)cc2)nc1 [pioglitazone] (first compound 0.4 µM, partner dose 2 µM)",103%

# Test system: WM3526
# Experiment: as above
# Conditions: library dose: low library concentration; 72 h
row,SMILES,cleaved PARP positive nuclei fraction
1,"Cn1cnc2c(F)c(Nc3ccc(Br)cc3Cl)c(C(=O)NOCCO)cc21 [selumetinib] + COc1ccc(-c2ccc3c(N4CCOCC4)nc(N4C[C@@H](C)O[C@@H](C)C4)nc3n2)cc1CO [KU0063794] (first compound 0.015 µM, partner dose 0.02 µM)",132%
2,"CC1(C)CCC(c2ccc(Cl)cc2)=C(CN2CCN(c3ccc(C(=O)NS(=O)(=O)c4ccc(N[C@H](CCN5CCOCC5)CSc5ccccc5)c(S(=O)(=O)C(F)(F)F)c4)cc3)CC2)C1 + CN(NC(=O)CC(=O)NN(C)C(=S)c1ccccc1)C(=S)c1ccccc1 [STA4783] (first compound 0.4 µM, partner dose 0.006 µM)",55.4%
3,"NC(=O)c1ccc(N(C(N)=O)c2c(F)cccc2F)nc1-c1ccc(F)cc1F + C=CCNC1=C2C[C@@H](C)C[C@H](OC)[C@H](O)[C@@H](C)/C=C(\C)[C@H](OC(N)=O)[C@@H](OC)/C=C\C=C(/C)C(=O)NC(=CC1=O)C2=O [Tanespimycin] (first compound 0.4 µM, partner dose 0.002 µM)",43.1%
4,"Cn1cnc2c(F)c(Nc3ccc(Br)cc3Cl)c(C(=O)NOCCO)cc21 [selumetinib] + Cn1c(Nc2ccc(C(F)(F)F)cc2)nc2cc(Oc3ccnc(-c4ncc(C(F)(F)F)[nH]4)c3)ccc21 [CHIR265] (first compound 0.015 µM, partner dose 0.08 µM)",165%
5,"NC(=O)c1ccc(N(C(N)=O)c2c(F)cccc2F)nc1-c1ccc(F)cc1F + C[C@]1(c2nc3c(C(N)=O)cccc3[nH]2)CCCN1 [Veliparib] (first compound 0.4 µM, partner dose 1.4 µM)",46.1%
6,"NC1(c2ccc(-c3nc4ccn5c(=O)[nH]nc5c4cc3-c3ccccc3)cc2)CCC1 + Cn1cc(/C=C2\C(=O)Nc3cccnc32)c2ccccc21 [GW441756] (first compound 0.4 µM, partner dose 0.4 µM)",219%
7,"CN(c1ncccc1CNc1nc(Nc2ccc3c(c2)CC(=O)N3)ncc1C(F)(F)F)S(C)(=O)=O + CCN(CC)CCCCNc1ncc2cc(-c3cc(OC)cc(OC)c3)c(NC(=O)NC(C)(C)C)nc2n1 [PD173074] (first compound 0.08 µM, partner dose 0.1 µM)",75.8%
8,"CC1(C)CCC(c2ccc(Cl)cc2)=C(CN2CCN(c3ccc(C(=O)NS(=O)(=O)c4ccc(N[C@H](CCN5CCOCC5)CSc5ccccc5)c(S(=O)(=O)C(F)(F)F)c4)cc3)CC2)C1 + O=C(O)[C@@H]1[O][Sb](=[O])([O][Sb]2(=[O])[O][C@H]([C@H](O)CO)[C@H](O)[C@H](C(=O)O)[O]2)[O][C@H]([C@H](O)CO)[C@@H]1O [stibogluconate] (first compound 0.4 µM, partner dose 2 µM)",95.6%

# 3 entries from above, as tab-separated lines:
row	SMILES	cleaved PARP positive nuclei fraction
3	NC(=O)c1ccc(N(C(N)=O)c2c(F)cccc2F)nc1-c1ccc(F)cc1F + C=CCNC1=C2C[C@@H](C)C[C@H](OC)[C@H](O)[C@@H](C)/C=C(\C)[C@H](OC(N)=O)[C@@H](OC)/C=C\C=C(/C)C(=O)NC(=CC1=O)C2=O [Tanespimycin] (first compound 0.4 µM, partner dose 0.002 µM)	43.1%
4	Cn1cnc2c(F)c(Nc3ccc(Br)cc3Cl)c(C(=O)NOCCO)cc21 [selumetinib] + Cn1c(Nc2ccc(C(F)(F)F)cc2)nc2cc(Oc3ccnc(-c4ncc(C(F)(F)F)[nH]4)c3)ccc21 [CHIR265] (first compound 0.015 µM, partner dose 0.08 µM)	165%
5	NC(=O)c1ccc(N(C(N)=O)c2c(F)cccc2F)nc1-c1ccc(F)cc1F + C[C@]1(c2nc3c(C(N)=O)cccc3[nH]2)CCCN1 [Veliparib] (first compound 0.4 µM, partner dose 1.4 µM)	46.1%
